In PubChem BioAssay AID504467 (National Center for Advancing Translational Sciences (NCATS), 2011):
Among all 330,000 compounds or so, about 7,700 (2.3%) were called active. Inconclusive results, whose numbers are uncertain, are shown with a selection of clear calls. The call rests on the fitted dose curve; in most records, active means well fitted inhibition curve with a large enough effect; inconclusive means small, poorly fitted or top-dose-only effect, or effect the other way; inactive means flat fitted curve, though single readings scatter. Where the call is inconclusive, the potency comes from a doubtful curve fit.

Assay: qHTS screen for small molecules that inhibit ELG1-dependent DNA repair in human embryonic kidney (HEK293T) cells expressing luciferase-tagged ELG1; further: nearly all actives have a fitted effect of over 55% in size
Settings: HEK293T ELG1-luciferase reporter, luminescence, 16 h, DNA damage induced by 5-fluorouridine; series mostly up to 46.1 µM
Procedure, shortened: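 Cells (2,000 per well) received 5-fluorouridine plus test compound or DMSO and were incubated 16 hr at 37 °C, 5% CO2. Luciferase activity was read by luminescence 30 min after ONE-Glo addition; signal suppression marked inhibition of damage-induced ELG1 function.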
Potency means the concentration at half of the fitted maximal effect.

Which Potency does the source give for `COc1ccc(-n2cc(C#N)c(=O)[nH]c2=O)cc1` here?
The Potency was “inactive”.

With `Cc1ccc(Cn2ccc(NC(=O)c3nn(C)cc3[N+](=O)[O-])n2)cc1` as the compound, how does the Potency read?
Its Potency is inconclusive: 4.11 µM [inhibitor, partial curve].

Which Potency does the source give for `Cc1ccc(N=C2NC(=O)/C(=C/c3cccn3C)S2)cc1C` here?
The Potency was inconclusive: 4.61 µM [activator, single point].

Which Potency does the source give for `COc1ccc2[nH]cc(CCNC(=O)CCC3CCCCC3)c2c1` here?
Its Potency is “inactive”.

Which Potency does the source give for `COc1ccc(C(=O)OC(C)C(=O)NC2CCCCC2C)cc1S(=O)(=O)N1CCOCC1` (stereo not given) here?
Its Potency is inconclusive: 9.2 µM [activator, partial curve, poor fit].

For `COc1ccccc1NC(=O)C(=O)NCCC1CCCCN1S(=O)(=O)c1cccs1` (stereo not given), which Potency is on record?
Its Potency is inconclusive: 16.4 µM [inhibitor, partial curve, poor fit].

Which Potency does the source give for `CCc1ccccc1Nc1ccc(C(=O)O)cc1N` here?
The Potency was inconclusive: 16.4 µM [activator, partial curve].

Which Potency does the source give for `Cc1c(CC(=O)NCCCC(=O)O)c(=O)oc2cc3occ(-c4ccccc4)c3cc12` here?
The Potency was “inactive”.

For `CCCc1c(C(=O)N/N=C/c2sccc2C)nnn1-c1nonc1N`, which Potency is on record?
The Potency was “inactive”.

With `O=C(CCc1nc2ccccc2[nH]1)N1CCN(C(=O)c2ccco2)CC1` as the compound, how does the Potency read?
The Potency was “inactive”.

With `Cc1[nH]c2ccccc2c1-c1csc(NC(=O)CN2CCOCC2)n1` as the compound, how does the Potency read?
The Potency was “inactive”.

With `Cc1ccc(N(C(=O)Cn2nnc(-c3ccc(C)o3)n2)C(C(=O)NC2CCCC2)c2ccco2)cc1` (stereo not given) as the compound, how does the Potency read?
Its Potency is “inactive”.

With `C#CCOCCOCCOCCNc1nc(N2CCN(C(=O)CCCCCCCCCCNC(=O)[C@@H](CCSC)n3cc(CCO)nn3)CC2)nc(N2CCN(C(=O)CCCCCCCCCCNC(=O)[C@@H]([C@H](C)O)n3cc(C)nn3)CC2)n1` as the compound, how does the Potency read?
Its Potency is inconclusive: 5.01 µM [inhibitor, single point].

For `COC(=O)N/N=C/c1cc(C)n(-c2ccc(F)cc2)c1C`, which Potency is on record?
Its Potency is inconclusive: 16.4 µM [activator, single point].

For `Cc1ccc(CN=C2Nc3ccccc3CS2)cc1`, which Potency is on record?
Its Potency is inconclusive: 7.08 µM [activator, partial curve, poor fit].

With `CC(=O)Nc1ccc(/C(C)=N/NS(=O)(=O)c2ccc(C)cc2)cc1` as the compound, how does the Potency read?
The Potency was “inactive”.

With `c1ccc(CN2C3=NCCCN3c3ccccc32)cc1` as the compound, how does the Potency read?
The Potency was “inactive”.

For `Cc1cccnc1CN1CCN(Cc2nc(Cc3cccc(F)c3)no2)CC1`, which Potency is on record?
Its Potency is inconclusive: 16.4 µM [inhibitor, partial curve, poor fit].

Which Potency does the source give for `Cc1ccc(C(=O)OCC2OC3OC(C)(C)OC3C2O)cc1` (stereo not given) here?
Its Potency is inconclusive: 18.4 µM [activator, single point].

For `COc1ccc2nc(-c3ccccc3)[nH]c2c1`, which Potency is on record?
Its Potency is inconclusive: 1.46 µM [activator, full curve].
